# Laboratory results reported in the supplement of paper PMC11732987, “Enantioselective OTUD7B fragment discovery through chemoproteomics screening and high-throughput optimisation” (Communications Chemistry, 2025).
# Protein sequences, listed by entry. Tags and fused reporters are not part of them. Lines headed by an entry give the natural chain unless they say otherwise; changes in a name come on top. Residues count along the entry.
# UniProt Q9C0C2: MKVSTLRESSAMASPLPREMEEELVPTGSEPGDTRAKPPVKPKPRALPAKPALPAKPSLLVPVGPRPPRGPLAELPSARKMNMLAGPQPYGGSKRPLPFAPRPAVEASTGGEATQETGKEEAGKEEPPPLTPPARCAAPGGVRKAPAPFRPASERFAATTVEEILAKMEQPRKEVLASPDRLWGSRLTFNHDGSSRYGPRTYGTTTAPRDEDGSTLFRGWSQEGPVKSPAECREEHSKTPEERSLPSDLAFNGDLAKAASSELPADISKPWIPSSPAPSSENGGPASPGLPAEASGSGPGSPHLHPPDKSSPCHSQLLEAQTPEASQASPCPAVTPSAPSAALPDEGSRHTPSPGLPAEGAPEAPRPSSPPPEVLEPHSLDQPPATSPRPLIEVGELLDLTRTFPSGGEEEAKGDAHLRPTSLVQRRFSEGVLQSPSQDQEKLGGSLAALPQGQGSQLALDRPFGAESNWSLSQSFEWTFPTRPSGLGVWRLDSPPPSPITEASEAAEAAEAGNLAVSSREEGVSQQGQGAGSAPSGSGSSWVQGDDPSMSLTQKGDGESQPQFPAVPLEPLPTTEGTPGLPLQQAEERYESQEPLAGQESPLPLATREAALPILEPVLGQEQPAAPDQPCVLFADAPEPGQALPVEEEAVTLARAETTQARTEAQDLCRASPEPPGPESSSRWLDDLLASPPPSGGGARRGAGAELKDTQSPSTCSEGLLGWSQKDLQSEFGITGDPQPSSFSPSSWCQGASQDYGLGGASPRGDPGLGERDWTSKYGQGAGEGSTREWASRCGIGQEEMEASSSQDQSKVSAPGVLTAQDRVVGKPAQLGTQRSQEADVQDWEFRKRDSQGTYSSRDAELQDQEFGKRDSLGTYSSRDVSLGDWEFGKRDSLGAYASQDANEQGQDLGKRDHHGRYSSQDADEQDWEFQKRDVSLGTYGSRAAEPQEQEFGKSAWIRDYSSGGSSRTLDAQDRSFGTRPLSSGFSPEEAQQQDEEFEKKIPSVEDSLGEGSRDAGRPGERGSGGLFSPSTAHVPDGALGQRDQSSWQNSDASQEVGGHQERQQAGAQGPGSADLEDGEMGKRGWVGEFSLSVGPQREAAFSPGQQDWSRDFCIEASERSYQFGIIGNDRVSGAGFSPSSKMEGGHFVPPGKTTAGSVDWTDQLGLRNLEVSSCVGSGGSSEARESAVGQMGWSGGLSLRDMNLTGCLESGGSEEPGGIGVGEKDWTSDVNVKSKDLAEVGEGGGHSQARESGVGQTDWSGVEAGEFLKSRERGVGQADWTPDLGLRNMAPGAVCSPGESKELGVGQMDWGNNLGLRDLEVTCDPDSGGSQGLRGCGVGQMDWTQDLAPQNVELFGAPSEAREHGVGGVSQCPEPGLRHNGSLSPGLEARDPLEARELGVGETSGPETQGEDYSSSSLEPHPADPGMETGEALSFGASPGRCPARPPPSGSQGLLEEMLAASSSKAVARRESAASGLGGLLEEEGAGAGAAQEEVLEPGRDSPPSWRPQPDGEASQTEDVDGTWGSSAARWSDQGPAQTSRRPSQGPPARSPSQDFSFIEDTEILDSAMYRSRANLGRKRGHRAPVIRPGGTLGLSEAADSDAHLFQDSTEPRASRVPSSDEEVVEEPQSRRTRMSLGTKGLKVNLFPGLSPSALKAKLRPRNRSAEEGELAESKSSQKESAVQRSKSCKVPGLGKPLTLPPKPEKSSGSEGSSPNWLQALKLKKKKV
# UniProt Q92547, 1444-1465: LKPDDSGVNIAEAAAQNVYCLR
# UniProt Q92547, whole entry, looked up: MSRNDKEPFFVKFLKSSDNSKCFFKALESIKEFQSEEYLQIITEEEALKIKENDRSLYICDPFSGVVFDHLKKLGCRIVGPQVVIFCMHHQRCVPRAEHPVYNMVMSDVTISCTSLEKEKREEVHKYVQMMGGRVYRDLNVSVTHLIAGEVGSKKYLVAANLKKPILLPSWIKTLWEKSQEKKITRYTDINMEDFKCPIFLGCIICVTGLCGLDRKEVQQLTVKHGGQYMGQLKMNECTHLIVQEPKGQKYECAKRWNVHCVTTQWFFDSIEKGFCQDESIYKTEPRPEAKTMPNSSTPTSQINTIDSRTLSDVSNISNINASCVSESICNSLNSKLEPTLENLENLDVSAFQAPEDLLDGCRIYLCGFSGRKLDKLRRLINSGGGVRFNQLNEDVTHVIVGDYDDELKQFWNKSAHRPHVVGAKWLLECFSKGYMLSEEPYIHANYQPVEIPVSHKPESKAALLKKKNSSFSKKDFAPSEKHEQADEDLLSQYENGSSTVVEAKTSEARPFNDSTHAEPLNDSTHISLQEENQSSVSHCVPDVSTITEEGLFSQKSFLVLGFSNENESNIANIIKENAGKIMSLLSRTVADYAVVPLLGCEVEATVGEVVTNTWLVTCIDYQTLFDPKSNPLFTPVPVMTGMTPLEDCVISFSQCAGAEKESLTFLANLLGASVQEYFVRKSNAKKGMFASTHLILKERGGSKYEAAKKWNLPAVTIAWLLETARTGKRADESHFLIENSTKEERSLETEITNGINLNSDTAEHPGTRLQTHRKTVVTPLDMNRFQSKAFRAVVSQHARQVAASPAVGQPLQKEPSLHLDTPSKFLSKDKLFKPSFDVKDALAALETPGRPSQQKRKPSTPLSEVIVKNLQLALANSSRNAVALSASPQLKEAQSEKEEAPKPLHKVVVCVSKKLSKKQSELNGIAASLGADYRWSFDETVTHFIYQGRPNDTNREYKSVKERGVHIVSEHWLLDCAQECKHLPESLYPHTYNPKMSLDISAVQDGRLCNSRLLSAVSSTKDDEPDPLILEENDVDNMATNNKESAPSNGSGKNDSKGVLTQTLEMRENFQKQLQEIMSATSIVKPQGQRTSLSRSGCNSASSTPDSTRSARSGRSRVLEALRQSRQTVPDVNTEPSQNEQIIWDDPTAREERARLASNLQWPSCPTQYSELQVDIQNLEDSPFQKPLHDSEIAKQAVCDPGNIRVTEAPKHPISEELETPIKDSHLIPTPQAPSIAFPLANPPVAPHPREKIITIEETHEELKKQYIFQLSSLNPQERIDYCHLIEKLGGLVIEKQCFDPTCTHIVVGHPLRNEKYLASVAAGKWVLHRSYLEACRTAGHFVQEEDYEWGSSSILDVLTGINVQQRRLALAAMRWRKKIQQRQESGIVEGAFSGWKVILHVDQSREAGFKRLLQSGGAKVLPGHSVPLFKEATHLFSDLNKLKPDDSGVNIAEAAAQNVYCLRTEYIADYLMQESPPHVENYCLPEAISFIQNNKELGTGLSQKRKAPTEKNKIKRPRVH
# UniProt Q96HA7: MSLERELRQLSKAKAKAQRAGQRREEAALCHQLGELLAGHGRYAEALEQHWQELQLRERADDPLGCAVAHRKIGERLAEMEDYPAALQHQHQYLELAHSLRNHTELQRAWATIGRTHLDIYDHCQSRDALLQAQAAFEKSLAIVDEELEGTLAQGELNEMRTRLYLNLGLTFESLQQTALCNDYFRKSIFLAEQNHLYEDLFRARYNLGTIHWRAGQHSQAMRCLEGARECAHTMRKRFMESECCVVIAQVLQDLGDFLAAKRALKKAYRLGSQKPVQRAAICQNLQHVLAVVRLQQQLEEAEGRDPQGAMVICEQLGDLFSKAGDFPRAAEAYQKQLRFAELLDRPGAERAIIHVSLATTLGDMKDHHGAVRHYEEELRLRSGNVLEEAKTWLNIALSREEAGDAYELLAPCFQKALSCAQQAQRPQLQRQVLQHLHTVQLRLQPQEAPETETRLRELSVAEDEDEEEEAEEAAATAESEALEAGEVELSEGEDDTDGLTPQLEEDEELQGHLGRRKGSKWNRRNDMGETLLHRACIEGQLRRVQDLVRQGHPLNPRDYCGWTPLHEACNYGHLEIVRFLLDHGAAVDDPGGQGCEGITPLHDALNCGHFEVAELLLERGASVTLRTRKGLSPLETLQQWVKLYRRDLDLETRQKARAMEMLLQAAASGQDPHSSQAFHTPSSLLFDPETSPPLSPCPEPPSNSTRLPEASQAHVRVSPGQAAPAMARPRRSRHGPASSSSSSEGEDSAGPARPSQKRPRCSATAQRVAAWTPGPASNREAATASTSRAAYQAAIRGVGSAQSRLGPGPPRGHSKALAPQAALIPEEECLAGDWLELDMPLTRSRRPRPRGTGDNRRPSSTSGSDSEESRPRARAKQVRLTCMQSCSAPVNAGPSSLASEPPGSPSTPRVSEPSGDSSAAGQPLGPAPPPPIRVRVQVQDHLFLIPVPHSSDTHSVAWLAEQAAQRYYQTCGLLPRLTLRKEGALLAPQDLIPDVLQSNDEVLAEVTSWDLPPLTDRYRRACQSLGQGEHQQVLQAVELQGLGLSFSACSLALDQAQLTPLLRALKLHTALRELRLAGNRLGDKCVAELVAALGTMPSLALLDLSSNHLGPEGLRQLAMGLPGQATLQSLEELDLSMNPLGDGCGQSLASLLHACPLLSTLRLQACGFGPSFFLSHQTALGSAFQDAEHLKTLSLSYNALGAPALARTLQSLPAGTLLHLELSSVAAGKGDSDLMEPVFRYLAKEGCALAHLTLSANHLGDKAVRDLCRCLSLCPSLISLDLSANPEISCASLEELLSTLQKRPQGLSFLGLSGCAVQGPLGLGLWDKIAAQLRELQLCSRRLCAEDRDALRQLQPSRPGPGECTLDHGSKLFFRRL
# UniProt P60174, whole entry, looked up: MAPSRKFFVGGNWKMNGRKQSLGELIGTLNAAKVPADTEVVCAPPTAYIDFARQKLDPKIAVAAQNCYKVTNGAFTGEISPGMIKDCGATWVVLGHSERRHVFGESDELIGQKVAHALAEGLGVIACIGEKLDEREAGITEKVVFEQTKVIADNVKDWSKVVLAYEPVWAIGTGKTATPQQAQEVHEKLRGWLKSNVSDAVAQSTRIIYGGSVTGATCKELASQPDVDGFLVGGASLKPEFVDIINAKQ
# UniProt Q9Y5L0: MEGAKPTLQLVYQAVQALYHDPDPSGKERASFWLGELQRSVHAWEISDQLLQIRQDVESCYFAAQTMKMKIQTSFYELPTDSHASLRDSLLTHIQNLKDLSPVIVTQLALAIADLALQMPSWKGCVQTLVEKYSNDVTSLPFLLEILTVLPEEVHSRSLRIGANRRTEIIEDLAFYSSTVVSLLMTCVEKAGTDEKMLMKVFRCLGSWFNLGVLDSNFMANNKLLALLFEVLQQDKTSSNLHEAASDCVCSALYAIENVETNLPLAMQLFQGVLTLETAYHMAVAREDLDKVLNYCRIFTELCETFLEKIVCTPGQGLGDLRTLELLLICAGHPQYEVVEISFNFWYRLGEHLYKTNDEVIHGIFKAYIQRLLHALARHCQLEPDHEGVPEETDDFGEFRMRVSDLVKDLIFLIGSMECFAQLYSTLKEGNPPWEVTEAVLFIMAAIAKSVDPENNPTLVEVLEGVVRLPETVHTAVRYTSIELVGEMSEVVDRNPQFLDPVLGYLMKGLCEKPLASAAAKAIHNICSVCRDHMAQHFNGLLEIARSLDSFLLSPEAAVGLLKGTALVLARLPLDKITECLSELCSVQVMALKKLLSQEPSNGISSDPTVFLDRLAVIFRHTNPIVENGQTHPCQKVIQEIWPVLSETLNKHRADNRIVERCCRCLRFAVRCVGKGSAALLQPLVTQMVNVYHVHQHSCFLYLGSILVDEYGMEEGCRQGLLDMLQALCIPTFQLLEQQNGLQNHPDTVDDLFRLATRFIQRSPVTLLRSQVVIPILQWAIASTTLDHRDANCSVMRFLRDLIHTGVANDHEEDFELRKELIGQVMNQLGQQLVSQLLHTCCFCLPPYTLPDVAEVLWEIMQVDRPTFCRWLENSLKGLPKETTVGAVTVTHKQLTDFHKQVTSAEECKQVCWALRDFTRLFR
# UniProt Q9NV96, 2-24: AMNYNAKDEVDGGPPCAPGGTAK
# UniProt P51580: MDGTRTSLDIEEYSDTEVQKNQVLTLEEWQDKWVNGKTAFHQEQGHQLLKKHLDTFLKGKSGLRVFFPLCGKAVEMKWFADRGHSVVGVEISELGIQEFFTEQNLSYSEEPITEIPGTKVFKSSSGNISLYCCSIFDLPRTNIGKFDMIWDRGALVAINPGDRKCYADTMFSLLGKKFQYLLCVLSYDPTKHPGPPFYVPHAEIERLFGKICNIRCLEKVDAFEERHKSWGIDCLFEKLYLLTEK
# UniProt Q9Y4G6, 2400-2424: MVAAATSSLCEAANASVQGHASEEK
# UniProt Q12888, 586-605: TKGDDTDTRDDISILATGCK
# UniProt Q12888, 89-116: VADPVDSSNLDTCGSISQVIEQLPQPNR
# UniProt Q8TBZ6: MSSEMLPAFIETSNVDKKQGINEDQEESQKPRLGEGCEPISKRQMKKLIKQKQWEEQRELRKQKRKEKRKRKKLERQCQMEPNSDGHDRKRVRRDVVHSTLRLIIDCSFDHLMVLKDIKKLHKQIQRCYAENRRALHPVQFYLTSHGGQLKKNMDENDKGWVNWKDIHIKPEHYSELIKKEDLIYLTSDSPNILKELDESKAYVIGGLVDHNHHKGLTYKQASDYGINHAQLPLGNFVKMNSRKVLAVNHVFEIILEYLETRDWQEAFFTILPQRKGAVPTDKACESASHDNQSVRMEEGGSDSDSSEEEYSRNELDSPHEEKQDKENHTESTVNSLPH
# UniProt Q9Y5J9: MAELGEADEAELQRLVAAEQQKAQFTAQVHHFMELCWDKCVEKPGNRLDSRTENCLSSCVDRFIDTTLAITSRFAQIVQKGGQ
# The list shows a part of the results. The data scatter; read single values as rough.
# Key:
# [1] = compound: ClCC(=O)N[C@@H]1CCCc2ccccc12; test: log2 mean competition ratio of IA-DTB cysteine labelling (DMSO/compound) (log2 ratio); higher = stronger cysteine engagement by compound; settings: treatment time: 4 h, cell line lysate: HEK293T
# Method: (§1)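 IA-DTB competitive cysteine chemoproteomics in HEK293T RIPA lysate. Lysates were treated with compound 29 or 30 at 50 or 200 µM for 4 h, then IA-DTB (500 µM, 1 h), trypsin-digested, NeutrAvidin-enriched and analysed by diaPASEF. Competition ratio = intensity DMSO / intensity compound (n=4 treated, n=64 DMSO); binding: mean log2 CR ≥ 1 and p ≤ 0.05 plus QC filters. Target is the cysteine site.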
# [2] = compound: ClCC(=O)N[C@H]1CCCc2ccccc12; test: as above; settings: treatment time: 4 h, cell line lysate: HEK293T
# Method: as §1
Target,log2 mean competition ratio ([1]; 50 µM),log2 mean competition ratio ([1]; 200 µM),log2 mean competition ratio ([2]; 50 µM),log2 mean competition ratio ([2]; 200 µM)
TNKS1BP1 C669 (UniProt Q9C0C2),-0.097,0.182,,
TOPBP1 C1463 (UniProt Q92547),0.441,0.426,,
TOP1 C733 (UniProt P11387),0.323,0.0448,,
TNKS1BP1 C716 (UniProt Q9C0C2),0.173,-0.00586,,
TRIM33 C447,-0.00165,0.17,,
TRAPPC10 C162 (UniProt P48553),0.0614,0.264,,
TONSL C66 (UniProt Q96HA7),0.281,0.211,,
TNKS1BP1 C794 (UniProt Q9C0C2),0.211,-0.154,,
TPI1 C127 (UniProt P60174),-0.0534,0.2,,
TMCO6 C416 (UniProt Q96DC7),0.0742,0.101,,
TONSL C762 (UniProt Q96HA7),0.17,0.23,,
TRIM37 C477 (UniProt O94972),-1.13e-05,-0.186,,
TNPO3 C312 (UniProt Q9Y5L0),-0.37,0.0862,,
TMEM201 C626 (UniProt Q5SNT2),0.142,-0.046,,
TMEM30A C17 (UniProt Q9NV96),-0.0427,-0.0876,,
TJP2 C601 (UniProt Q9UDY2),-0.141,-0.179,,
TRIP11 C726 (UniProt Q15643),-0.0308,-0.0492,,
TM9SF3 C428 (UniProt Q9HD45),0.129,0.276,,
TPMT C165 (UniProt P51580),0.117,-0.534,,
TRIO C2599 (UniProt O75962),-0.398,-0.471,,
TRIP12 C156 (UniProt Q14669),0.0608,0.0207,,
TK1 C3,-0.0835,-0.193,,
TLE4 C32 (UniProt Q04727),0.0647,0.23,,

Target,log2 mean competition ratio ([1]; 50 µM),log2 mean competition ratio ([1]; 200 µM),log2 mean competition ratio ([2]; 50 µM),log2 mean competition ratio ([2]; 200 µM)
TLN2 C289 (UniProt Q9Y4G6),0.407,0.00269,,
TRAFD1 C135 (UniProt O14545),-0.118,-0.0493,,
TPT1 C28,-0.276,-0.255,,
TRAK1 C713,-0.061,-0.0838,,
TRIM14 C237 (UniProt Q14142),0.257,0.806,,
TOP3A C190 (UniProt Q13472),-0.0655,-0.0469,,
TPP2 C28,-0.263,0.00275,,
TMEM63B C23 (UniProt Q5T3F8),-0.165,-0.0968,,
TP53INP2 C214,0.262,-0.00694,,
TOMM34 C250 (UniProt Q15785),-0.231,-0.237,,
TMED5 C47 (UniProt Q9Y3A6),0.0522,-0.305,,
TLN2 C2409 (UniProt Q9Y4G6),-0.472,-0.124,,
TLN2 C2153 (UniProt Q9Y4G6),-0.0737,-0.215,,
TRIM32 C618 (UniProt Q13049),0.114,-0.138,,
TRIM3 C227 (UniProt O75382),-0.347,0.258,,
TRIO C28 (UniProt O75962),-0.25,-0.414,,
TMEM45A C38,-0.0708,0.371,0.0778,0.232
TMEM223 C156 (UniProt A0PJW6),0.0991,0.244,,
TP53BP1 C604 (UniProt Q12888),-0.247,0.303,,
TRIM33 C153,-0.0984,0.142,,
TRAF2 C182 (UniProt Q12933),-0.0303,-0.103,,
TOR1AIP1 C496 (UniProt Q5JTV8),0.408,-0.146,,
TK1 C185,-0.106,0.333,-0.188,0.207

# Another view of part of the listing above.
Target	log2 mean competition ratio ([1]; 50 µM)	log2 mean competition ratio ([1]; 200 µM)	log2 mean competition ratio ([2]; 50 µM)	log2 mean competition ratio ([2]; 200 µM)
TRIM14 C237 (UniProt Q14142)	0.257	0.806		
TP53INP2 C214	0.262	-0.00694		

# Next entries follow.

Target,log2 mean competition ratio ([1]; 50 µM),log2 mean competition ratio ([1]; 200 µM),log2 mean competition ratio ([2]; 50 µM),log2 mean competition ratio ([2]; 200 µM)
TRIM47 C347 (UniProt Q96LD4),-0.0744,0.154,0.273,-0.028
TOPBP1 C238 (UniProt Q92547),0.232,0.0469,,
TONSL C1340 (UniProt Q96HA7),-0.103,0.23,,0.179
TMPO C629,0.0142,-0.0162,0.28,0.0147
TOR1AIP1 C424 (UniProt Q5JTV8),0.344,0.258,,
TOP2A C170 (UniProt P11388),0.451,0.0174,,
TMTC4 C478 (UniProt Q5T4D3),0.234,0.441,-0.000899,0.455
TOMM70 C502 (UniProt O94826),-0.266,-0.164,,
TLN2 C1954 (UniProt Q9Y4G6),0.114,-0.447,,
TPP2 C787,0.117,-0.325,,
TRIP12 C332 (UniProt Q14669),0.225,0.0989,0.161,0.125
TRMT10A C285 (UniProt Q8TBZ6),-0.0544,-0.0556,,
TMEM214 C377 (UniProt Q6NUQ4),-0.24,-0.0723,,
TMEM104 C455 (UniProt Q8NE00),0.19,-0.211,,
TNKS C190 (UniProt O95271),0.114,-0.446,,
TMEM115 C156 (UniProt Q12893),-0.0563,0.0531,,0.362
TP53BP1 C772 (UniProt Q12888),0.221,-0.0373,,
TMA16 C75 (UniProt Q96EY4),-0.0611,-0.0294,,
TMEM186 C156 (UniProt Q96B77),-0.183,-0.115,,
TLE4 C529 (UniProt Q04727),-0.14,0.511,,
TNPO1 C164 (UniProt Q92973),0.442,-0.0721,0.15,0.109
TLN1 C2161 (UniProt Q9Y490),-0.375,-0.312,-0.118,-0.266
TPGS2 C12,-0.103,-0.0282,-0.321,-0.264

Target,log2 mean competition ratio ([1]; 50 µM),log2 mean competition ratio ([1]; 200 µM),log2 mean competition ratio ([2]; 50 µM),log2 mean competition ratio ([2]; 200 µM)
TRAF3IP1 C594 (UniProt Q8TDR0),0.636,0.236,,0.369
TLE2 C261 (UniProt Q04725),-0.121,-0.3,,
TRIM33 C849,0.149,0.00573,0.346,0.151
TRAPPC10 C696 (UniProt P48553),0.00113,0.314,-0.373,0.261
TMPO C518,-0.265,0.219,,
TRIP6 C429 (UniProt Q15654),0.17,-0.354,0.281,-0.326
TPI1 C67 (UniProt P60174),0.28,0.448,0.281,0.382
TRIP4 C86 (UniProt Q15650),-0.142,-0.173,-0.284,-0.0779
TRIM56 C169 (UniProt Q9BRZ2),-0.0609,0.0814,0.0277,-0.24
TRIR C165 (UniProt Q9BQ61),-0.0172,-0.0557,0.277,-0.0508
TOP1MT C222,-0.186,-0.096,-0.327,-0.11
TNS3 C1241 (UniProt Q68CZ2),0.551,0.424,-0.409,0.0617
TRMO C312 (UniProt Q9BU70),-0.178,0.107,0.219,-0.0329
TOPBP1 C911 (UniProt Q92547),-0.107,-0.209,0.0645,-0.211
TLN2 C2197 (UniProt Q9Y4G6),-0.169,0.199,-0.0659,0.234
TMEM181 C262 (UniProt Q9P2C4),0.135,-0.0689,-0.0142,-0.274
TP53BP1 C513 (UniProt Q12888),-0.225,0.103,0.257,0.316
TMED9 C49 (UniProt Q9BVK6),-0.314,0.0281,-0.203,-0.0837
TRAF2 C156 (UniProt Q12933),-0.154,0.0362,-0.24,-0.245
TNPO3 C634 (UniProt Q9Y5L0),0.205,0.154,0.0135,-0.291
TIMM8B C40 (UniProt Q9Y5J9),-0.0205,0.128,0.541,0.0533
TP53BP1 C101 (UniProt Q12888),-0.403,0.0506,-0.435,-0.181
TIMM29 C182 (UniProt Q9BSF4),-0.0156,0.221,0.00614,-0.0933

Target,log2 mean competition ratio ([1]; 50 µM),log2 mean competition ratio ([1]; 200 µM),log2 mean competition ratio ([2]; 50 µM),log2 mean competition ratio ([2]; 200 µM)
TRIM11 C330 (UniProt Q96F44),-0.157,-0.232,-0.192,-0.15
TMEM39B C67,0.509,0.0703,0.451,-0.0596
TPX2 C594 (UniProt Q9ULW0),-0.0555,-0.131,0.125,0.101
TONSL C537 (UniProt Q96HA7),0.0329,0.214,-0.052,0.166
TKFC C404 (UniProt Q3LXA3),-0.0782,0.0975,-0.157,0.111
TMUB2 C166 (UniProt Q71RG4),-0.292,0.0999,0.481,-0.00782
TIPRL C87 (UniProt O75663),-0.00809,-0.329,0.0862,-0.215
TMEM102 C162 (UniProt Q8N9M5),0.271,-0.0805,-0.0212,0.116
TMF1 C405 (UniProt P82094),-0.491,-0.441,0.413,-0.48
TK1 C66,-0.0688,0.0109,-0.0498,-0.0332
TNKS1BP1 C1296 (UniProt Q9C0C2),0.136,-0.136,0.335,0.031
TMEM209 C301 (UniProt Q96SK2),0.112,0.0207,-0.00988,-0.0935
TRIM47 C631 (UniProt Q96LD4),-0.0498,0.0726,0.212,-0.0394
TNRC6C C1637 (UniProt Q9HCJ0),0.362,0.176,0.41,0.156
TLN1 C1023 (UniProt Q9Y490),-0.0795,-0.136,-0.0613,0.0363
TMEM192 C266 (UniProt Q8IY95),0.579,0.25,0.611,0.23
TNKS1BP1 C1373 (UniProt Q9C0C2),0.123,-0.0106,-0.0323,-0.0269
TPI1 C87 (UniProt P60174),-0.0175,-0.00222,-0.247,-0.0883
TKFC C155 (UniProt Q3LXA3),0.708,0.0918,0.643,-0.0473
TM9SF1 C445 (UniProt O15321),0.162,0.0834,0.352,0.191
TPX2 C536 (UniProt Q9ULW0),0.0428,0.00957,0.0438,0.256
TPP2 C342,0.0361,-0.136,-0.114,-0.132
TMEM209 C367 (UniProt Q96SK2),1.04,0.687,0.283,-0.034
